Source: patent publication US10301203B2, “Chloroperoxidase-catalyzed degradation of pharmaceutical pollutants in wastewater” (THE FLORIDA INTERNATIONAL UNIVERSITY BOARD OF TRUSTEES, priority 2017, dated 2019)

Experiment: Elimination of COD and TOC by CPO-catalyzed oxidative degradation
Conditions: CPO-catalyzed degradation alone

For O=C([O-])Cc1ccccc1Nc1c(Cl)cccc1Cl.[Na+] [diclofenac, 2-[(2,6-dichlorophenyl)amino]benzeneacetic acid; sodium salt], the COD removal was 4.9% and the TOC removal was 25%.

With COc1ccc2cc(C(C)C(=O)O)ccc2c1 (stereo not shown) [naproxen, 2-(6-methoxynaphthalen-2-yl)propionic acid] the COD removal was 9.1% and the TOC removal was 7.6%.
